Results as given in paper doi:10.1101/2020.09.18.303644.
These are yes or no findings as the source states them, for the method shown. Binding seen in cells or lysates may run through a third protein. Some entries that bind do so weakly or less than the wild type.

Protein sequences, listed by entry. Tags and fused reporters are not part of them. Lines headed by an entry give the natural chain unless they say otherwise; changes in a name come on top. Chains listed by the source or under a name are the forms on record and can include a tag or linker.
GFP-SERCA2a (P16615, form named): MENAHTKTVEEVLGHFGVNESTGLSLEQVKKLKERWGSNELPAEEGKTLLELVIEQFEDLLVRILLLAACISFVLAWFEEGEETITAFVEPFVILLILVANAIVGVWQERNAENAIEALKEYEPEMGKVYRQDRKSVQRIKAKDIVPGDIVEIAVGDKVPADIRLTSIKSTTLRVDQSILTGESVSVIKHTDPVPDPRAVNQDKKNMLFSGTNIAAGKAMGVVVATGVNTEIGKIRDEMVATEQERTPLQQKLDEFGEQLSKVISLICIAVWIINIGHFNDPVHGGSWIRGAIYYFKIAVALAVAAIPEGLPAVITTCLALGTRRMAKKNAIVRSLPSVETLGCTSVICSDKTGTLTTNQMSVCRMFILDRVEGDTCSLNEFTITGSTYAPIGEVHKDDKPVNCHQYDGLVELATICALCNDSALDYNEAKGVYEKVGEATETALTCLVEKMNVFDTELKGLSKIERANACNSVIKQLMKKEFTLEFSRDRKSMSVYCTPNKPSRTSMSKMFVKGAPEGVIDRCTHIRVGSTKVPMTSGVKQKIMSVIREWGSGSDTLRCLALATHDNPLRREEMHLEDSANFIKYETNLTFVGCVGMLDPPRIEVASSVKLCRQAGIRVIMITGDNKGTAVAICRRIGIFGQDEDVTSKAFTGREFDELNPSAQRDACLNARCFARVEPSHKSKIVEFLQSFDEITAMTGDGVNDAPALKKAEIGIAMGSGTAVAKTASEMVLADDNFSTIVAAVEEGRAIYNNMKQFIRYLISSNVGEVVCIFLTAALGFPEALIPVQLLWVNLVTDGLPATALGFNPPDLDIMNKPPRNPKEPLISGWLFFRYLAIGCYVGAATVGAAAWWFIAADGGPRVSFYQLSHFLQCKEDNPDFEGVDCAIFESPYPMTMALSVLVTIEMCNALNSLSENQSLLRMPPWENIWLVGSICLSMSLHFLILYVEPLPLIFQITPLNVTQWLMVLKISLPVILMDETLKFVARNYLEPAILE
UniProt P26678: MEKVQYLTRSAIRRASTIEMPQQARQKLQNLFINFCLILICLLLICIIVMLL

Molecular target: GFP-SERCA2a (human) (UniProt P16615)
Assay: FRET or BRET

## RFP-PLB (from UniProt P26678 1-52)
  binding: binds
